Results: patent US11103435B2, “Malodor reducing compositions” (Givaudan, S.A., priority 2014, dated 2021)

Experiment: Odor Value (log10 OV) of perfume materials: Standard Equilibrium Headspace Concentration / Odor Detection Threshold
Conditions: common logarithm of Odor Value = headspace concentration (20° C., 1 atmosphere) / Odor Detection Threshold

Row | SMILES | Log10OV
1 | C=CC(C)CCCC(C)(C)O (stereo not shown) [DIHYDRO MYRCENOL] | 5.4
2 | CC/C=C\CC/C=C/CO [NONADIENOL-2,6, (2E,6Z)-nona-2,6-dien-1-ol] | 7.1
3 | CC(C)=CC1CC(C)CCO1 (stereo not shown) [ROSE OXIDE CO, 4-methyl-2-(2-methylprop-1-en-1-yl)tetrahydro-2H-pyran] | 7.4
4 | C=C(C)C1CC=C(C)C(=O)C1 (stereo not shown) [CARVONE LAEVO, 2-methyl-5-(prop-1-en-2-yl)cyclohex-2-enone] | 5.8
5 | CC=C(CC)CCC(C)CCO (stereo not shown) [SUPER MUGUET] | 4.0
6 | CC(C)CCCC(C)(C)O [DIMETOL, 2,6-dimethylheptan-2-ol] | 5.5
7 | C=CC(C)(O)CCC=C(C)C (stereo not shown) [LINALOL SYNT, 3,7-dimethylocta-1,6-dien-3-ol] | 5.8
8 | CCCCCCC1CCCC1=O (stereo not shown) [JASMATONE] | 4.8
9 | CC(=O)C1(C)CC2=C(CCCC2(C)C)CC1C (stereo not shown) [ISO E SUPER] | 4.5
10 | CC12CCC(CC1)C(C)(C)O2 [EUCALYPTOL COSMOS, (1s,4s)-1,3,3-trimethyl-2-oxabicyclo[2.2.2]octane] | 7.0
11 | CC(=O)c1oc2ccccc2c1C [NEROLIONE, 1-(3-methylbenzofuran-2-yl)ethanone] | 7.3
12 | CCC(C)C1CCCc2cccnc21 (stereo not shown) [BIGARYL, 8-(sec-butyl)-5,6,7,8-tetrahydroquinoline] | 6.6
13 | CCOc1cc(COC)ccc1O [METHYL DIANTILIS] | 3.9
14 | C=CCCC(=O)C(=C)C1CCCCC1 [PHARAONE 10%/DPG, 2-cyclohexylhepta-1,6-dien-3-one] | 6.2
15 | CC1=CC(C)C(C=O)CC1 (stereo not shown) [CYCLAL C, 2,4-dimethylcyclohex-3-enecarbaldehyde] | 5.9
16 | CC1CCC(c2ccccn2)C(C)C1 (stereo not shown) [ZINARINE, 2-(2,4-dimethylcyclohexyl)pyridine] | 5.4
17 | C=C/C=C/C=C\CCCCC [(3E,5Z)-undeca-1,3,5-triene] | 6.7
18 | CC1C/C=C/CCCCCCCC(=O)OCC1 (stereo not shown) [NIRVANOLIDE] | 4.3
19 | Cc1ccc2c(c1)OCC(=O)CO2 [CALONE 1951, 7-methyl-2H-benzo[b][1,4]dioxepin-3(4H)-one] | 6.0
20 | CC(C)=CCCC(C)C=O (stereo not shown) [MELONAL, 2,6-dimethylhept-5-enal] | 6.6
21 | CCOC(=O)C1=C(C)C=CCC1(C)C [SAFRANATE ETHYLE, ethyl 2,6,6-trimethylcyclohexa-1,3-diene-1-carboxylate] | 6.2
22 | CC(=O)/C=C/C1C(C)=CCCC1(C)C (stereo not drawn) [IRISONE ALPHA, (E)-4-(2,6,6-trimethylcyclohex-2-en-1-yl)but-3-en-2-one] | 5.1
23 | CC1=CCC(C=CC(C)C(C)O)C1(C)C (stereo in doubt) [EBANOL] | 5.3
24 | COc1ccc(CC2CC2)cc1 [TOSCANOL, 1-(cyclopropylmethyl)-4-methoxybenzene] | 5.7
25 | CC1CC(C)(c2ccccc2)CO1 (stereo not shown) [RHUBAFURAN, 2,4-dimethyl-4-phenyltetrahydrofuran] | 5.9
26 | C=CCOC(=O)COCCC(C)C [ALLYL AMLY GLYCOLATE, allyl 2-(isopentyloxy)acetate] | 5.8
27 | C=CCCC(=O)C1=CC(C)(C)CCC1 [GALBANONE PURE, 1-(3,3-dimethylcyclohex-1-en-1-yl)pent-4-en-1-one] | 6.6
28 | CCCCCCCCCC(C)C=O (stereo not shown) [ALD C12 MNA PUR, 2-methylundecanal] | 7.0
